These results are taken from publication doi:10.1101/2021.06.28.447216.

Sequences of proteins named here, by UniProt entry; tags and fusion partners are left off.
UniProt P83916: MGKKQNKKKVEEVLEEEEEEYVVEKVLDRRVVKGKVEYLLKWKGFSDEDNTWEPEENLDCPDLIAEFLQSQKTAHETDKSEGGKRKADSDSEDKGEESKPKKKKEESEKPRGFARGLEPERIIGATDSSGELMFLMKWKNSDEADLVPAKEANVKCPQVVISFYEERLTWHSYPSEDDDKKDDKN
UniProt P45973: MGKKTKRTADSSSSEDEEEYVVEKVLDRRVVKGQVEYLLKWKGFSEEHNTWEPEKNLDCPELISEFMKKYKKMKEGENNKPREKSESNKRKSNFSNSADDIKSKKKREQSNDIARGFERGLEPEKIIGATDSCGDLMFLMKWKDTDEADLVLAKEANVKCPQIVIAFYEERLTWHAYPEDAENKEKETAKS

The target of the assay is T1, mCherry-LacR-tagged version of POGZ (human) (UniProt Q7Z3K3).
T1 sequence: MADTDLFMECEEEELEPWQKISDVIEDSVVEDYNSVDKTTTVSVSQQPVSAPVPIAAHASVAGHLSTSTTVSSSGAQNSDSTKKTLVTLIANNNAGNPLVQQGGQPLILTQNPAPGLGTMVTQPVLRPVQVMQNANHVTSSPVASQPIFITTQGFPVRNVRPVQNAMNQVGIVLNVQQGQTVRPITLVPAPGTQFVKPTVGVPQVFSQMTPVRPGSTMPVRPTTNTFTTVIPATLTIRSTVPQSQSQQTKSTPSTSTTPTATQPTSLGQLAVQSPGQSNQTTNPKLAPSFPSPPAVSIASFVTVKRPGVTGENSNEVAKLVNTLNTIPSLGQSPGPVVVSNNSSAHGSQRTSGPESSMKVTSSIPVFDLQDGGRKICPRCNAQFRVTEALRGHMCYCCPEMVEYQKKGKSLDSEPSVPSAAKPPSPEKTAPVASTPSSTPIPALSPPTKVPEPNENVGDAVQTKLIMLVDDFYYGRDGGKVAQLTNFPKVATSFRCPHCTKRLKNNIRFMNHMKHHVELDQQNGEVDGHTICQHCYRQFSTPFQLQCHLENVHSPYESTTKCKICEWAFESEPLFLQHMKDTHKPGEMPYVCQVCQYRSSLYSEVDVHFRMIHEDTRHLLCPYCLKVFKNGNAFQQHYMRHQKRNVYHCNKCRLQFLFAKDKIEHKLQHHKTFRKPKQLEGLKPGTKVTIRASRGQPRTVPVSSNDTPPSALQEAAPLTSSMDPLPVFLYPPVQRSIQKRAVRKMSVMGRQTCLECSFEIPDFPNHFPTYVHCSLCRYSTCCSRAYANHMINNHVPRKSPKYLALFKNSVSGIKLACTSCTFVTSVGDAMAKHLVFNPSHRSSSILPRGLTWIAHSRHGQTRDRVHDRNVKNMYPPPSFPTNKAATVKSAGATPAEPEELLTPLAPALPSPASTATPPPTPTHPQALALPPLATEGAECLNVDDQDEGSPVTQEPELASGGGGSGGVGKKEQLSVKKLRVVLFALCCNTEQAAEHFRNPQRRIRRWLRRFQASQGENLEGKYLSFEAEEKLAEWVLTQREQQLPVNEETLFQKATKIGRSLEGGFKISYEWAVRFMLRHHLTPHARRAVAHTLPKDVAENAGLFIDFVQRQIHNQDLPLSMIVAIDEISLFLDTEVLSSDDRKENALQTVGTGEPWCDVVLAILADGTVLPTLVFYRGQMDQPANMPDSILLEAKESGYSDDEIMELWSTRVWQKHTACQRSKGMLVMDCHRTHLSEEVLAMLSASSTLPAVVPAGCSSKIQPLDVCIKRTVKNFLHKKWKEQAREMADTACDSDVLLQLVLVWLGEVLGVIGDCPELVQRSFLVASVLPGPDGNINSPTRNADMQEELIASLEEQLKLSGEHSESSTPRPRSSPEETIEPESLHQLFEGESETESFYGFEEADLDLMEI
Description: LacO/LacR tethering assay with immunofluorescence.

No constants are given. Whether binding was seen depends on the method and setting. Some entries that bind do so weakly or less than the wild type. Tags and fused reporters may be left off the sequences shown.

Consider “endogenous HP1-β (from UniProt P83916 1-185)”, for which the binding entry is listed as “binds”. Then “endogenous HP1-α (from UniProt P45973 1-191)”, with “binds”.
